Assay results published in paper PMC3496707.
These are yes or no findings as the source states them, for the method shown. For part of these data: In cells and extracts the contact can be indirect. Some results given as binding are weak or reduced against the parent protein; the word gives no strength. For part of these data: Sequences can lack the tags named with a protein.

The chains behind the UniProt entries cited, without tags or fusion partners. Residues count along the entry.
UniProt P14873, residues 2203-2464: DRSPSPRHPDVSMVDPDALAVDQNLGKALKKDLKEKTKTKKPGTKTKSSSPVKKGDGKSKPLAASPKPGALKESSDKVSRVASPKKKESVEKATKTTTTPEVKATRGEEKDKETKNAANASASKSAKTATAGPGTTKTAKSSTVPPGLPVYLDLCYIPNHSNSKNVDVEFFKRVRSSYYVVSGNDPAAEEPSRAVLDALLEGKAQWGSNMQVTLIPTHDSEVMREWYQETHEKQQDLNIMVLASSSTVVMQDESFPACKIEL
UniProt P15205, residues 2200-2461: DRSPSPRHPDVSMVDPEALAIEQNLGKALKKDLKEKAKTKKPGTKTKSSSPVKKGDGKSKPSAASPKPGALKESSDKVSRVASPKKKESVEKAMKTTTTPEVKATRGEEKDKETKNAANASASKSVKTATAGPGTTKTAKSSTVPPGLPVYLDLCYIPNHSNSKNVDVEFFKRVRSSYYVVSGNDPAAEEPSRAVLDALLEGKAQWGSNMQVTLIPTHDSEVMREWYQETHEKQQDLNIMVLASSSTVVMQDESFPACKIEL
UniProt P02769, residues 25-607: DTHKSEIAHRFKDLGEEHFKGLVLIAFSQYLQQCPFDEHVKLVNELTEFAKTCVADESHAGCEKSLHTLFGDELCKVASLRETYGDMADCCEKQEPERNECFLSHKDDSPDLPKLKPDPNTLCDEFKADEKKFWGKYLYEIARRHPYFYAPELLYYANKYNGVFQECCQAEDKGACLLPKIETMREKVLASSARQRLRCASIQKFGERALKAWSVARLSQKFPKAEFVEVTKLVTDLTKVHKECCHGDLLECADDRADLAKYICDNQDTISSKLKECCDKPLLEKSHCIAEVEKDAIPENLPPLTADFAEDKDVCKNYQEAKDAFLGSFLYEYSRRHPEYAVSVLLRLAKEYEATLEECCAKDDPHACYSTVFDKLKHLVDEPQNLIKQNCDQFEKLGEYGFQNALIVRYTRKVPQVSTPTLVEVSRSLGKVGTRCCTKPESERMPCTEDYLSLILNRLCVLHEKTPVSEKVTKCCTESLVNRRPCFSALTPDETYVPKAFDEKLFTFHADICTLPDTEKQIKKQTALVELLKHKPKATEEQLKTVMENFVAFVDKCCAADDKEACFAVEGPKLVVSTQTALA

B1: α1-syntrophin, endogenous in mouse brain (protein, UniProt Q61234 1-503)
chain: MASGRRAPRTGLLELRCGAGSGAGGERWQRVLLSLAEDALTVSPADGEPGPEPEPAQLNGAAEPGAAPPQLPEALLLQRRRVTVRKADAGGLGISIKGGRENKMPILISKIFKGLAADQTEALFVGDAILSVNGEDLSSATHDEAVQALKKTGKEVVLEVKYMKEVSPYFKNSAGGTSVGWDSPPASPLQRQPSSPGPQPRNLSEAKHVSLKMAYVSRRCTPTDPEPRYLEICAADGQDAVFLRAKDEASARSWAGAIQAQIGTFIPWVKDELQALLTATGTAGSQDIKQIGWLTEQLPSGGTAPTLALLTEKELLFYCSLPQSREALSRPTRTAPLIATSSAHRLVHSGPSKGSVPYDAELSFALRTGTRHGVDTHLFSVESPQELAAWTRQLVDGCHRAAEGIQEVSTACTWNGRPCSLSVHIDKGFTLWAAEPGAARAMLLRQPFEKLQMSSDDGTSLLFLDFGGAEGEIQLDLHSCPKTMVFIIHSFLSAKVTRLGLLA
B2: NH2-terminally 6xHis-tagged full length mouse α1-syntrophin (protein, UniProt Q61234 1-503)
chain: B1 chain
modifications: Eu3+-labeled (in the microtiter plate assay only)

Assays:
[1] = biological target: LC1 (light chain of MAP1B), endogenous in wild-type mouse brain (mouse (endogenous in brain)) (UniProt P14873); test: co-IP; wild-type mouse brain extracts, precipitated with anti-LC1; not shown
[2] = biological target: myc-tagged LC1 expressed in the brain of transgenic mice (UniProt P15205); test: co-IP; brain extracts of 3-week-old transgenic mice expressing myc-tagged LC1, TEN buffer; precipitated with anti-myc, blotted with anti-syn1351
[3] = biological target: BSA type H1 (bovine) (UniProt P02769); test: microtiter plate overlay assay with Eu3+-labeled protein (time-resolved fluorescence); plates coated with 100 nM LC1 or BSA, blocked with 4% BSA, overlaid with increasing amounts of Eu3+-labeled α1-syntrophin; both purified

| Binder | binding [1] | binding [2] | binding [3] |
| --- | --- | --- | --- |
| B1 | binds | binds |  |
| B2 |  |  | no binding |
